Source: the supplement of paper PMC10849652
The other results are listed elsewhere or left out.

Amino acid sequences for entries named in this document (tags omitted). A change or cut given only in a name is not applied to a line headed by its entry.
UniProt Q9UNF1: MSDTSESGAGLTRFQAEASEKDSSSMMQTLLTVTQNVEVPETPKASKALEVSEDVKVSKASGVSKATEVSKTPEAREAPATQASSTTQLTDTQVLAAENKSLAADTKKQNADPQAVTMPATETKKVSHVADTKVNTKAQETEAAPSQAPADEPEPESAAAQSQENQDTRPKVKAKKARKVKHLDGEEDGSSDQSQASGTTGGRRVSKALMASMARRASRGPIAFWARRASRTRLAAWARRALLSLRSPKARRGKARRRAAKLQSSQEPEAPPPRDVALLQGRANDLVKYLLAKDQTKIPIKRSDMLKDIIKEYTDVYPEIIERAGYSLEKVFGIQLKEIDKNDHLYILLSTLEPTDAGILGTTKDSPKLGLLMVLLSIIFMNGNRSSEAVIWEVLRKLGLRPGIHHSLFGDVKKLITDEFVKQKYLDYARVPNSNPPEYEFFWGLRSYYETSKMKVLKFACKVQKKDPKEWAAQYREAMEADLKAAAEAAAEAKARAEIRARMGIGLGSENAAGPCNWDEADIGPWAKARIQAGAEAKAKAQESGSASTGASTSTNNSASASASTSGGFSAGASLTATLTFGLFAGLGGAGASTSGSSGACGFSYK
UniProt Q16539, whole entry, looked up: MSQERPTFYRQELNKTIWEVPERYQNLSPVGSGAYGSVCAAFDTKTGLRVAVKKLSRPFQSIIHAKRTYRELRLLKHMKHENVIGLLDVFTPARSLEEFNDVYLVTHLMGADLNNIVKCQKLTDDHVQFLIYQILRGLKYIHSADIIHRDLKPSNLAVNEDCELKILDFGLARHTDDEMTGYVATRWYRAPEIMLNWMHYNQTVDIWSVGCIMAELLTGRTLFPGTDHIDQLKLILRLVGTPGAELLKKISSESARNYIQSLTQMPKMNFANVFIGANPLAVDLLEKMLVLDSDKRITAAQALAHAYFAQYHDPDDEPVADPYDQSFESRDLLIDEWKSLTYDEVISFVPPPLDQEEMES
UniProt Q9Y5V3: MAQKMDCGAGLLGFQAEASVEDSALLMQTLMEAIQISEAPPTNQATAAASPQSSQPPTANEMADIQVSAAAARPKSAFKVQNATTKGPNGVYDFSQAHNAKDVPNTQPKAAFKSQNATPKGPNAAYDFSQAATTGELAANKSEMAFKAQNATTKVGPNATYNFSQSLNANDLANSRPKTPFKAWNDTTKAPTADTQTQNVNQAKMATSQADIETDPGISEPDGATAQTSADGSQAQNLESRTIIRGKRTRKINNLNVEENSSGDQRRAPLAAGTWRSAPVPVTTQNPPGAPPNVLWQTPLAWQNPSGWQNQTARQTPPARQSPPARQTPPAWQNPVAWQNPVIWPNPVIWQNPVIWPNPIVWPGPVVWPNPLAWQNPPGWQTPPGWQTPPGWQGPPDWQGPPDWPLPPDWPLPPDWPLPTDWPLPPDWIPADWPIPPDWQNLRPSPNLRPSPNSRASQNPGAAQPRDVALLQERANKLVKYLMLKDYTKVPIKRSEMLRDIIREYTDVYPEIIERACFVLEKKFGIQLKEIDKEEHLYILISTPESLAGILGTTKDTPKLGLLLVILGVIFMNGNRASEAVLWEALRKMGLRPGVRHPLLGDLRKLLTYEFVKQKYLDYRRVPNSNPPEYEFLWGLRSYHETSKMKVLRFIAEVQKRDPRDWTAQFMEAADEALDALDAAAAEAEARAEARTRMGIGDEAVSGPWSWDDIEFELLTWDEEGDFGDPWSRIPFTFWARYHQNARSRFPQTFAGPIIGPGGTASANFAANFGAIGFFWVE
UniProt Q9UPY8, whole entry, looked up: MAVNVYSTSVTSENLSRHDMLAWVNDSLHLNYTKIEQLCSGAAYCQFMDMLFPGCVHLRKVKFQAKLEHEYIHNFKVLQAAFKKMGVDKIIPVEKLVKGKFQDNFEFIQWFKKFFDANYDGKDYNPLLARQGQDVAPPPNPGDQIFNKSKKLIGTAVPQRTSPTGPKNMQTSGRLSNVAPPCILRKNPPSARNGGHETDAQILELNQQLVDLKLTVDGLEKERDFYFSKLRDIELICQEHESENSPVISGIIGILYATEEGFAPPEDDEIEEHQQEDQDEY
UniProt P45983: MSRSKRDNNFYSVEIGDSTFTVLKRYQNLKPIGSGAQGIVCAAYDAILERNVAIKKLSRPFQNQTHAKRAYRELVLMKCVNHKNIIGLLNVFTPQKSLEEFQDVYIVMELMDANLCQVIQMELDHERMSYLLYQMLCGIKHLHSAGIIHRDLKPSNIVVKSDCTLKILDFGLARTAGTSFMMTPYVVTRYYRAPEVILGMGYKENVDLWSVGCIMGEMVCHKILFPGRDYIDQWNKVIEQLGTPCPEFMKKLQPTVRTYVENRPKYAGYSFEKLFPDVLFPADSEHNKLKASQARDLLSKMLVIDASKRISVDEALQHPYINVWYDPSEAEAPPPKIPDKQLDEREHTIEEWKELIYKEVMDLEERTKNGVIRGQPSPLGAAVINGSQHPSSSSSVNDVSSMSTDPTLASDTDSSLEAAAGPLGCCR
UniProt Q96A72, whole entry, looked up: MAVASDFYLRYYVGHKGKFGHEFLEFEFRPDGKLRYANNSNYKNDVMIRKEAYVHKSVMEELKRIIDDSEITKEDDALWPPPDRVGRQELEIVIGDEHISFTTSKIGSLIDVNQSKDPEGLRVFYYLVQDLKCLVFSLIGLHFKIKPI
UniProt Q9Y383: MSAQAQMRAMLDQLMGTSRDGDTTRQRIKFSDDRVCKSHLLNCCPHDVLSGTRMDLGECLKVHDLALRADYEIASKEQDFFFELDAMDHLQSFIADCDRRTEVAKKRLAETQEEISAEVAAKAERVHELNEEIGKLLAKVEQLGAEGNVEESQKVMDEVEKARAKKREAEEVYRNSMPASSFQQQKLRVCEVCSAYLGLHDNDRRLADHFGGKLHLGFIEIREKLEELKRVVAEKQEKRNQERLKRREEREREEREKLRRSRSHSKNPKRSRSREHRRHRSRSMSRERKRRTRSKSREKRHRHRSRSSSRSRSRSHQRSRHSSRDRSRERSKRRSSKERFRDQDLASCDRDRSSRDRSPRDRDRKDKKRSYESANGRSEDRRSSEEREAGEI
UniProt Q86V48: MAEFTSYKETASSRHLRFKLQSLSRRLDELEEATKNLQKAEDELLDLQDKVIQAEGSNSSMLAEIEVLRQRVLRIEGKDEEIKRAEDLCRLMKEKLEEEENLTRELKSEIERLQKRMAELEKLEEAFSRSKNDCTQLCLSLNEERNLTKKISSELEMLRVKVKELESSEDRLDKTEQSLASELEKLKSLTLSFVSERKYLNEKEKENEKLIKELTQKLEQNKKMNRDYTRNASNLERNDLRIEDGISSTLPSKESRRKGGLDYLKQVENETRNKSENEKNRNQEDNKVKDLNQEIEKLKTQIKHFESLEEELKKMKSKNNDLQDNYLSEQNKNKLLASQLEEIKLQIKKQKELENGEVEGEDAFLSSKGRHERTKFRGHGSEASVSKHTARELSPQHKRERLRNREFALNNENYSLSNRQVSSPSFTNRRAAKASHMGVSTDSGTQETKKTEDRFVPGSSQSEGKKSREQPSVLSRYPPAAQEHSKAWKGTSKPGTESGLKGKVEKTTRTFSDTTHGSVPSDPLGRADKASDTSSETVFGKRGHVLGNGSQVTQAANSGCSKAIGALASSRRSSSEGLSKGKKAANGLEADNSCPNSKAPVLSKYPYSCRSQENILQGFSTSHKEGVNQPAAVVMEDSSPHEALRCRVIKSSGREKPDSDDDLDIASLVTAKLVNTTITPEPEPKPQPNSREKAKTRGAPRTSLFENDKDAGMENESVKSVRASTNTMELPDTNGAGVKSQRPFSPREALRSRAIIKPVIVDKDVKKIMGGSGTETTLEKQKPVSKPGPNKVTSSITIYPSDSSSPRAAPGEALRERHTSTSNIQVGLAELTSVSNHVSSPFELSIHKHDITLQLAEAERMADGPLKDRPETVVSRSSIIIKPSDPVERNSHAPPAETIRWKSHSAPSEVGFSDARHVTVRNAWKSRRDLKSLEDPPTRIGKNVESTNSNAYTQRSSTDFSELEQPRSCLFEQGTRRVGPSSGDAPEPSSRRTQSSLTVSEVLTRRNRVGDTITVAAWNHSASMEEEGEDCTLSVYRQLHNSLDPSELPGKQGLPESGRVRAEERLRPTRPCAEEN
UniProt P45985: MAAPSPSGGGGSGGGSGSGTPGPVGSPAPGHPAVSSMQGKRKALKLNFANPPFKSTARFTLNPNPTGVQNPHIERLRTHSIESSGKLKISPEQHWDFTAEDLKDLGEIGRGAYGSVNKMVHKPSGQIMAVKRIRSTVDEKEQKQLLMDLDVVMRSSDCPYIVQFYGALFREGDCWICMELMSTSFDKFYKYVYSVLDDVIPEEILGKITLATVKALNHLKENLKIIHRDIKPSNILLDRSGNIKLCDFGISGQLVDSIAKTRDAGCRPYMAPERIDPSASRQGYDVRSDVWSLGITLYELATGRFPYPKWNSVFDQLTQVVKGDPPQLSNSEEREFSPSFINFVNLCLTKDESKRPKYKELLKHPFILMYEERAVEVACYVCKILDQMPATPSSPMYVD
UniProt Q9NQ29: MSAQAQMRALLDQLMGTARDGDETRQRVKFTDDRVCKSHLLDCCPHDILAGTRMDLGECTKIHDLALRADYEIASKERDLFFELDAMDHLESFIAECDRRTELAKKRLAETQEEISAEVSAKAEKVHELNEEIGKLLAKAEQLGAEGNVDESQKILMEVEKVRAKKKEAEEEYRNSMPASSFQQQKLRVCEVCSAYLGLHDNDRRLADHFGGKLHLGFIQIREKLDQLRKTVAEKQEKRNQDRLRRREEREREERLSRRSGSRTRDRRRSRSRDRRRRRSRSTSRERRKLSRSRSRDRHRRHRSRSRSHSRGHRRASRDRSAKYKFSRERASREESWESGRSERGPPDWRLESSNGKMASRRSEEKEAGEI
UniProt Q9Y4F3: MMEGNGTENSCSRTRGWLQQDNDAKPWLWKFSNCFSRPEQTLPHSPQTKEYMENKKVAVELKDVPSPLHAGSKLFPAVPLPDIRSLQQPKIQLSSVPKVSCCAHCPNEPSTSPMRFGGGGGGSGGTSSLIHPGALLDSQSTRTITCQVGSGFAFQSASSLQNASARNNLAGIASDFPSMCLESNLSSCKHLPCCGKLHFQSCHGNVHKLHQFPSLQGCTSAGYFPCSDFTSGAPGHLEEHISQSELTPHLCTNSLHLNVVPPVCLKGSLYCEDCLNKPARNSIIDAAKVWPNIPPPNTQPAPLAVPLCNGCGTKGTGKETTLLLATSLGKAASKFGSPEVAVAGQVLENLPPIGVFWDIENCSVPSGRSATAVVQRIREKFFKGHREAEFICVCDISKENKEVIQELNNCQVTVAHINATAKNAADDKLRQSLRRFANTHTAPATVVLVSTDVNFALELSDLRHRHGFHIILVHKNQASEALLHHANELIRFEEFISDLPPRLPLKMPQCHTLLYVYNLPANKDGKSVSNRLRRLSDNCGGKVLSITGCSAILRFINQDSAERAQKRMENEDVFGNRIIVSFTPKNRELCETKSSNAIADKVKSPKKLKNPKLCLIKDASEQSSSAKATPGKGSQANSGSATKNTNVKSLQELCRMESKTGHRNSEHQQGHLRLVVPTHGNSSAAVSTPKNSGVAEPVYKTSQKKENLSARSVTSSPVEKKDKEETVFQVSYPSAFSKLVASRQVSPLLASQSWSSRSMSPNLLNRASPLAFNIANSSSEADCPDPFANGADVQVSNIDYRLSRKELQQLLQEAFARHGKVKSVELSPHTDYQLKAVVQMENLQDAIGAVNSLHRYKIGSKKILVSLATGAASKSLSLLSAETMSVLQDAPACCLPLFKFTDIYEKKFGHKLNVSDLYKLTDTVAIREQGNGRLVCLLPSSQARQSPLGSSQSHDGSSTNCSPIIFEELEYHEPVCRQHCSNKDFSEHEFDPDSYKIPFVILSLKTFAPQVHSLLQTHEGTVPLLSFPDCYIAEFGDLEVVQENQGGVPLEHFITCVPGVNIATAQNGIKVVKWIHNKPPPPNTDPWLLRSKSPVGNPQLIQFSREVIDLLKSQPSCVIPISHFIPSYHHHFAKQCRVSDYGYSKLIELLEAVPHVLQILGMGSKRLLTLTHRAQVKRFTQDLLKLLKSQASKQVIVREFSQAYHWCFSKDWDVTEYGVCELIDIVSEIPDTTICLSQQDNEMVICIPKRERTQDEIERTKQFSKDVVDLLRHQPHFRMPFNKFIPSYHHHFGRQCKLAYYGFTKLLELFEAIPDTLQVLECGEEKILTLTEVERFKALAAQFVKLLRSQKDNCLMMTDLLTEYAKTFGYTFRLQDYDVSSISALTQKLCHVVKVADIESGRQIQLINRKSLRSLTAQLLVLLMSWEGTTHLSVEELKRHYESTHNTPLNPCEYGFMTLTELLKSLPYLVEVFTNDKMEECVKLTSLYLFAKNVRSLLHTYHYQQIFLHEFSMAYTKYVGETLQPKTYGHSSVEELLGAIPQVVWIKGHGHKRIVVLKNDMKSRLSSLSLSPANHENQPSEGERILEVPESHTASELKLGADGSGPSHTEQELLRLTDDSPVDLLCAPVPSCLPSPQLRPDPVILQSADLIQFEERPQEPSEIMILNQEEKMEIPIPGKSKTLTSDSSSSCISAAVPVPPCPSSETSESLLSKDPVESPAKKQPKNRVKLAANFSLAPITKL

What follows are targets tested with O=C(O)c1ccc2c(c1)nc(Nc1cccc(Cl)c1)c1ccncc12 [silmitasertib] (assay: log2 fold change, soluble protein after heating vs DMSO (PISA); higher = thermal stabilisation; K562 lysate, 10 uM; active = over 0.2 and 3.5 SD of the protein, either way, in both replicates (recomputed)).
How it was run: (§1)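 Values give the log-two fold change in thermal stability against solvent controls, from duplicates. Crude K562 extract at 1 mg/mL protein, made by dounce homogenisation in PBS pH 7.4 with 1 mM MgCl2, was treated with 10 μM compound for 30 min. After 3 min heating across 48°C-58°C, aliquots were pooled, adjusted to 0.5% NP-40 at 4°C and centrifuged at 21,000xg for 90 min. The supernatant was measured by TMTpro 16plex LC-MS/MS with channel sums equalised.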

log2 fold change, active:
MARK3 (UniProt P27448) 0.445

log2 fold change, inactive:
MAGEC1 (UniProt O60732) 0.082
LYPLA2 (UniProt O95372) -0.012
MAGED2 (UniProt Q9UNF1) -0.007
MAPK14 isoform 2 (UniProt Q16539) 0.291
LTF (UniProt P02788) -0.165
MAN2A2 (UniProt P49641) 0.057
MAGED1 isoform 2 (UniProt Q9Y5V3) -0.015
LYRM7 (UniProt Q5U5X0) 0.03
MAPRE3 (UniProt Q9UPY8) 0.036
MAPK8 isoform 3 (UniProt P45983) 0.007
MARVELD1 (UniProt Q9BSK0) -0.02
MANEA (UniProt Q5SRI9) -0.103
LZIC isoform 2 (UniProt Q8WZA0) -0.022
MANBA (UniProt O00462) -0.011
LZTFL1 (UniProt Q9NQ48) 0.013
MAGOHB (UniProt Q96A72) -0.006
MAPK1 (UniProt P28482) 0.042
MAD1L1 (UniProt Q9Y6D9) -0.01
LZTR1 (UniProt Q8N653) 0.005
MAGT1 (UniProt Q9H0U3) -0.008
MAP2K5 (UniProt Q13163) -0.123
MAPRE3 isoform 2 (UniProt Q9UPY8) 0.123
MACF1 (UniProt H3BQK9) 0.02
MAPKAPK2 (UniProt P49137) 0.072
LUC7L2 (UniProt Q9Y383) -0.038
MAIP1 (UniProt Q8WWC4) 0.004
LTN1 isoform 3 (UniProt O94822) 0.04
LYRM1 (UniProt O43325) 0.096
LYZ (UniProt P61626) -0.099
LUZP1 (UniProt Q86V48) 0.129
MACC1 (UniProt Q6ZN28) 0.002
MAP2K4 isoform 2 (UniProt P45985) 0.023
LUC7L (UniProt Q9NQ29) -0.126
MAPK14 (UniProt Q16539) 0.279
MARF1 (UniProt Q9Y4F3) 0.003
MARS (UniProt P56192) 0.036
MAEA (UniProt Q7L5Y9) 0.036

The targets below were run with O=C1NC(=O)C(c2cnc3ccccn23)=C1c1cn2c3c(cc(F)cc13)CN(C(=O)N1CCCCC1)CC2 in the same assay as above.
How it was run: as §1

log2 fold change, inactive:
MAGEC1 (UniProt O60732) 0.025
LYPLA2 (UniProt O95372) 0.073
MAGED2 (UniProt Q9UNF1) -0.035
MAPK14 isoform 2 (UniProt Q16539) -0.092
LTF (UniProt P02788) 0.513
MAN2A2 (UniProt P49641) -0.042
MAGED1 isoform 2 (UniProt Q9Y5V3) 0.081
LYRM7 (UniProt Q5U5X0) -0.005
MAPRE3 (UniProt Q9UPY8) -0.012
MAPK8 isoform 3 (UniProt P45983) 0.038
MANEA (UniProt Q5SRI9) -0.047
LZIC isoform 2 (UniProt Q8WZA0) 0.019
MANBA (UniProt O00462) -0.015
LZTFL1 (UniProt Q9NQ48) -0.018
MAGOHB (UniProt Q96A72) 0.047
MAPK1 (UniProt P28482) -0.005
MAD1L1 (UniProt Q9Y6D9) -0.04
MARK3 (UniProt P27448) 0.035
LZTR1 (UniProt Q8N653) 0.013
MAGT1 (UniProt Q9H0U3) -0.023
MAP2K5 (UniProt Q13163) 0.023
MAPRE3 isoform 2 (UniProt Q9UPY8) 0.086
MACF1 (UniProt H3BQK9) 0.001
MAPKAPK2 (UniProt P49137) -0.014
LUC7L2 (UniProt Q9Y383) -0.047
MAIP1 (UniProt Q8WWC4) -0.044
LTN1 isoform 3 (UniProt O94822) 0.028
LYRM1 (UniProt O43325) 0.006
LYZ (UniProt P61626) 0.156
LUZP1 (UniProt Q86V48) 0.022
MACC1 (UniProt Q6ZN28) -0.017
MAP2K4 isoform 2 (UniProt P45985) 0.013
LUC7L (UniProt Q9NQ29) -0.016
MAPK14 (UniProt Q16539) 0.015
MARF1 (UniProt Q9Y4F3) -0.045
MARS (UniProt P56192) 0
MAEA (UniProt Q7L5Y9) 0.058
